Measurements reported in PubChem BioAssay AID1224828 (NIAID, 2016).
Screen: 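Knock-downs that increase or decrease LPS-induced p65 nuclear translocation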 (primary screen). System: mouse RAW264.7 G9 macrophage reporter cells (GFP-p65, Tnf promoter-mCherry). Reagent: siRNA pool against mouse genes, 100 nM. Time to read-out: 2 days siRNA transfection, then 40 min LPS before fixation. Challenge: LPS (Salmonella minnesota R595) at 10 ng/ml. Read-out: 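Microscopy ratio of nuclear to perinuclear-ring GFP-p65 signal, scaled to the plate median; gene score is the average of two replicate robust z-scores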. Reading the numbers: p65 translocation robust z-score: higher = more nuclear NF-kappaB p65 after LPS than the plate median; nuclear/cytoplasmic p65 ratio: higher = more nuclear NF-kappaB p65. Call rule: 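Active if robust z is above 3.3 (negative regulators) or below -1.56, the Tlr4 control median (positive regulators); activity score 50 or more; control wells not called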. Meaning of the calls: active = hit (p65 shift raised or lowered); inactive = no clear change.
This is a random part of about 17,000 reagents tested. In the full data, 762 (4.5%) are marked active. 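Active calls include both raised and lowered p65 entry, mostly lowered; wells with fewer than 50 cells lack a z-score.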 The raw values are shown without normalisation. No sequences are given here.

Against Nr1i3, the entry reads p65 translocation robust z-score 0.7; nuclear/cytoplasmic p65 ratio, rep 1 = 1.58; nuclear/cytoplasmic p65 ratio, rep 2 = 1.47; low cell count flag enough cells to score; inactive. For Hes3, the values are p65 translocation robust z-score 0.19; nuclear/cytoplasmic p65 ratio, rep 1 = 1.71; nuclear/cytoplasmic p65 ratio, rep 2 = 1.54; low cell count flag enough cells to score; inactive. Against Pnpo the deposit lists p65 translocation robust z-score -0.2; nuclear/cytoplasmic p65 ratio, rep 1 = 1.32; nuclear/cytoplasmic p65 ratio, rep 2 = 1.67; low cell count flag enough cells to score; inactive. Depletion of Crtap came out at: p65 translocation robust z-score -1.22; nuclear/cytoplasmic p65 ratio, rep 1 = 1.31; nuclear/cytoplasmic p65 ratio, rep 2 = 1.68; low cell count flag enough cells to score; inactive. After knock-down of Gpr157, the record shows nuclear/cytoplasmic p65 ratio, rep 1 = 1.43; nuclear/cytoplasmic p65 ratio, rep 2 = 1.33; low cell count flag fewer than 50 cells per well; well left out of scoring; inactive. With knock-down of Sdr16c5, the screen gave p65 translocation robust z-score 0.41; nuclear/cytoplasmic p65 ratio, rep 1 = 1.46; nuclear/cytoplasmic p65 ratio, rep 2 = 1.27; low cell count flag enough cells to score; inactive.

Or51e1 gave p65 translocation robust z-score -1.53; nuclear/cytoplasmic p65 ratio, rep 1 = 1.29; nuclear/cytoplasmic p65 ratio, rep 2 = 1.31; low cell count flag enough cells to score; inactive. Depletion of Zmynd19 resulted in: p65 translocation robust z-score -1.08; nuclear/cytoplasmic p65 ratio, rep 1 = 1.39; nuclear/cytoplasmic p65 ratio, rep 2 = 1.12; low cell count flag enough cells to score; inactive.

3 of these entries in another layout.
Nr1i3
- p65 translocation robust z-score: 0.7
- nuclear/cytoplasmic p65 ratio, rep 1: 1.58
- nuclear/cytoplasmic p65 ratio, rep 2: 1.47
- low cell count flag: enough cells to score
- call: inactive

Hes3
- p65 translocation robust z-score: 0.19
- nuclear/cytoplasmic p65 ratio, rep 1: 1.71
- nuclear/cytoplasmic p65 ratio, rep 2: 1.54
- low cell count flag: enough cells to score
- call: inactive

Pnpo
- p65 translocation robust z-score: -0.2
- nuclear/cytoplasmic p65 ratio, rep 1: 1.32
- nuclear/cytoplasmic p65 ratio, rep 2: 1.67
- low cell count flag: enough cells to score
- call: inactive

Further records follow.
With knock-down of Tecrl, the record shows p65 translocation robust z-score 1.26; nuclear/cytoplasmic p65 ratio, rep 1 = 1.6; nuclear/cytoplasmic p65 ratio, rep 2 = 1.37; low cell count flag enough cells to score; inactive. Kics2 scored p65 translocation robust z-score 0.54; nuclear/cytoplasmic p65 ratio, rep 1 = 1.5; nuclear/cytoplasmic p65 ratio, rep 2 = 1.6; low cell count flag enough cells to score; inactive. Gca gave p65 translocation robust z-score 0.92; nuclear/cytoplasmic p65 ratio, rep 1 = 1.74; nuclear/cytoplasmic p65 ratio, rep 2 = 1.58; low cell count flag enough cells to score; inactive. Mog gave p65 translocation robust z-score 0.06; nuclear/cytoplasmic p65 ratio, rep 1 = 1.98; nuclear/cytoplasmic p65 ratio, rep 2 = 1.44; low cell count flag enough cells to score; inactive. For Hras, the values are p65 translocation robust z-score -2.1; nuclear/cytoplasmic p65 ratio, rep 1 = 1.3; nuclear/cytoplasmic p65 ratio, rep 2 = 1.27; low cell count flag enough cells to score; active. Knock-down of Or2g1 came out at: p65 translocation robust z-score -1.76; nuclear/cytoplasmic p65 ratio, rep 1 = 1.51; nuclear/cytoplasmic p65 ratio, rep 2 = 1.21; low cell count flag enough cells to score; active.

Gzmn showed p65 translocation robust z-score 0.04; nuclear/cytoplasmic p65 ratio, rep 1 = 1.53; nuclear/cytoplasmic p65 ratio, rep 2 = 1.56; low cell count flag enough cells to score; inactive. Sprr2i gave p65 translocation robust z-score -0.47; nuclear/cytoplasmic p65 ratio, rep 1 = 1.38; nuclear/cytoplasmic p65 ratio, rep 2 = 1.16; low cell count flag enough cells to score; inactive. Zfp868 scored p65 translocation robust z-score 0.9; nuclear/cytoplasmic p65 ratio, rep 1 = 1.71; nuclear/cytoplasmic p65 ratio, rep 2 = 1.85; low cell count flag enough cells to score; inactive. With knock-down of Usp17lc, the screen gave p65 translocation robust z-score 1.02; nuclear/cytoplasmic p65 ratio, rep 1 = 1.67; nuclear/cytoplasmic p65 ratio, rep 2 = 1.43; low cell count flag enough cells to score; inactive. 1700020M10Rik scored nuclear/cytoplasmic p65 ratio, rep 1 = 1.31; nuclear/cytoplasmic p65 ratio, rep 2 = 1.15; low cell count flag fewer than 50 cells per well; well left out of scoring; inactive. Against Rab4b the deposit lists p65 translocation robust z-score 0.38; nuclear/cytoplasmic p65 ratio, rep 1 = 1.6; nuclear/cytoplasmic p65 ratio, rep 2 = 1.54; low cell count flag enough cells to score; inactive.

With knock-down of Hrnr, the screen gave p65 translocation robust z-score -0.35; nuclear/cytoplasmic p65 ratio, rep 1 = 1.42; nuclear/cytoplasmic p65 ratio, rep 2 = 1.47; low cell count flag enough cells to score; inactive.
